Measured values: patent US20200181284A1 (UNIVERSITY OF SOUTHERN CALIFORNIA, published 2020)

Legend:
[1] = target: T1, endogenous G9a of A549 cells (human, UniProt Q96KQ7 2-1210, limits assumed); experiment: proximity ligation assay, endogenous proteins, A549 cells
T1 construct: also called EHMT2
T1 sequence (looked up): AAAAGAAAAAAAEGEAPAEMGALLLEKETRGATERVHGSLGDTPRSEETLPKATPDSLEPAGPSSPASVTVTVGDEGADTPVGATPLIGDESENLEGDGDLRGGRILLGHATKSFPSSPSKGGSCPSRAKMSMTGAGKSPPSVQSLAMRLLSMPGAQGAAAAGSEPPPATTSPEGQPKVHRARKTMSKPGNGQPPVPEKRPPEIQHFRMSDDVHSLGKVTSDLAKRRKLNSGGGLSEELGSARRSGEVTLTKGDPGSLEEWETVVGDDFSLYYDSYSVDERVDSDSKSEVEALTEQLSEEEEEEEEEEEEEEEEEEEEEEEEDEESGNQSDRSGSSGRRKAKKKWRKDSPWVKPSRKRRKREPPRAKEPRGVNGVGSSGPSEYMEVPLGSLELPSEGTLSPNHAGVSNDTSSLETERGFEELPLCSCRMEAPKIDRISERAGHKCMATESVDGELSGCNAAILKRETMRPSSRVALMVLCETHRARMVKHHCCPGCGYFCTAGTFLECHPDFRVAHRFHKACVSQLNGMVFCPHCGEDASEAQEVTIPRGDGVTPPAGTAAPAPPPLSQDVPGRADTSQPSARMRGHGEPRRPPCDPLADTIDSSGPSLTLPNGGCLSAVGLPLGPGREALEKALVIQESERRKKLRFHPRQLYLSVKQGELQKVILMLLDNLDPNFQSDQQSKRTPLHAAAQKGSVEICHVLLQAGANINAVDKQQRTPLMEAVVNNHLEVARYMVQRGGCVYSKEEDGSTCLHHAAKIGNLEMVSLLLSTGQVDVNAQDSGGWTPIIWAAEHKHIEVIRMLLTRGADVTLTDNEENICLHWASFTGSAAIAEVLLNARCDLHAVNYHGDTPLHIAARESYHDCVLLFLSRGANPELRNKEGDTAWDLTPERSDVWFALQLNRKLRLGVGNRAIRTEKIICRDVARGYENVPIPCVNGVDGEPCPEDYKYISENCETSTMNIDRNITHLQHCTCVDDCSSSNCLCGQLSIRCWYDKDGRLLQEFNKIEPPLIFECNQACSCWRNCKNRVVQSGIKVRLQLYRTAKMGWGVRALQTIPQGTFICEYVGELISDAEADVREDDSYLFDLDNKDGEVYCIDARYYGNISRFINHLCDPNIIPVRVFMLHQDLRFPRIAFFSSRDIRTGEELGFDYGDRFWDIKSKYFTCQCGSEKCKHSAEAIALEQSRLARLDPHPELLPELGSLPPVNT

[2] = target: T2, full length HA-hG9a wild type (human, UniProt Q96KQ7 1-1210, in cells methylated on K185 and phosphorylated on T186 (as detected with pan-methyllysine and pan-phosphothreonine antibodies)); experiment: proximity ligation assay (HA and HP1γ antibodies), A549 rtta cells
T2 construct: Expressed from pSG5.HA-hG9a in Cos-7 cells, or from a doxycycline-inducible transgene in A549 rtta cells; also called EHMT2; KMT1C
T2 sequence (looked up): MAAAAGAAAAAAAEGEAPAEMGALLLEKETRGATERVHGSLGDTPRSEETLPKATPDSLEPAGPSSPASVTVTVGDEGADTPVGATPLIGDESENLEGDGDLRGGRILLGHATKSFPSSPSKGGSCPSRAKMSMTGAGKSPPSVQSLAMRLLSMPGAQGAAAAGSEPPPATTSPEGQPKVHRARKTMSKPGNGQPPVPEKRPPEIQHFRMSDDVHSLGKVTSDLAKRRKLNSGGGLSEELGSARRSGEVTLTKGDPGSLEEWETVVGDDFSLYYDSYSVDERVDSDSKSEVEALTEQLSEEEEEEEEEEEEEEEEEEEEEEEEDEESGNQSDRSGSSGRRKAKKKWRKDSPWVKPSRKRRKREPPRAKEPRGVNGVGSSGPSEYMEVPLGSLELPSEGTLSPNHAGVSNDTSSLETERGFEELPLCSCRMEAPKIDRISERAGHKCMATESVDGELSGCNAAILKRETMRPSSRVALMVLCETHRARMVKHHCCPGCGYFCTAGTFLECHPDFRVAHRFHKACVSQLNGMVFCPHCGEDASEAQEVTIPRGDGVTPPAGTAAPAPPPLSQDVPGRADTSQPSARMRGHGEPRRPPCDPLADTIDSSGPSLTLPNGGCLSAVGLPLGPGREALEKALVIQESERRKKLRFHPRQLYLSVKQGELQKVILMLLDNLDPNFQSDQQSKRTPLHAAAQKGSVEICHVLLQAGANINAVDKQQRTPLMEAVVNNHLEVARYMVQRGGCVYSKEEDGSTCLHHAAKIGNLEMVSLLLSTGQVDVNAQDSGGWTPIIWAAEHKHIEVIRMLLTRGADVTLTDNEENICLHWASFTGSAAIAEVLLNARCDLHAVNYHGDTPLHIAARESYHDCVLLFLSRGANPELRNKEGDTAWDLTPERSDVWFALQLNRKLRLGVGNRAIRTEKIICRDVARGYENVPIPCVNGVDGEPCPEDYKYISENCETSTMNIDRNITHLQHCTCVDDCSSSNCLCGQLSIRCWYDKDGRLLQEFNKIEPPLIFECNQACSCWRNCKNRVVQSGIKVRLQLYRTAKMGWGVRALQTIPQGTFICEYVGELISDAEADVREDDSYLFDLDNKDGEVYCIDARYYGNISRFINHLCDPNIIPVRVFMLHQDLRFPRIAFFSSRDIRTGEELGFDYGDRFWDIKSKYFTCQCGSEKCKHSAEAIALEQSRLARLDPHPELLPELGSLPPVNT

[3] = target: T3, glucocorticoid receptor (GR) (human, UniProt P04150 1-777); experiment: proximity ligation assay, endogenous proteins, A549 cells; association depends on G9a/GLP (ternary complex)
T3 construct: hGR expressed from a plasmid in Cos-7 cells (co-immunoprecipitation) or endogenous GR of A549 cells (co-immunoprecipitation, PLA); also called hGR; NR3C1
T3 sequence (looked up): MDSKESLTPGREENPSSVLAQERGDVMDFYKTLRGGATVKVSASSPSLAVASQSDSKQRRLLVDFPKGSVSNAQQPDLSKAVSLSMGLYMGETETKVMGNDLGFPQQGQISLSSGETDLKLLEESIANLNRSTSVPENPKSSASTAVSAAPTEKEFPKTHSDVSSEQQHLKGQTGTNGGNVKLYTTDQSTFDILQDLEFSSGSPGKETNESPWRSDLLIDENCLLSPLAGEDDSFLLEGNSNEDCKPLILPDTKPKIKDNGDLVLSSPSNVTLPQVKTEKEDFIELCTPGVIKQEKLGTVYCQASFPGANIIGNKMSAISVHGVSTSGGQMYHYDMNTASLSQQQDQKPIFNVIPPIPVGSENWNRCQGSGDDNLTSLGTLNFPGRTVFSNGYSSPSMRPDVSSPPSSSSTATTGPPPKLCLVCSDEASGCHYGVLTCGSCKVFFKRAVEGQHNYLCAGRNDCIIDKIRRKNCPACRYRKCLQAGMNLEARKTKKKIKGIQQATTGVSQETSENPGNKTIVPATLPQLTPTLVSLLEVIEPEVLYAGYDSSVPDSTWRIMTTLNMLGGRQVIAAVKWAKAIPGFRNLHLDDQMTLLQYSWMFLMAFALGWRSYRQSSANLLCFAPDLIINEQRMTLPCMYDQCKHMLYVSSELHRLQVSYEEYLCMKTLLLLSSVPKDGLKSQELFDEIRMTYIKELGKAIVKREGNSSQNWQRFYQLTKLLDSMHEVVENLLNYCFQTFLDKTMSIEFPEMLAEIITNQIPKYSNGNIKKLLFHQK
Source text: Scale bar represents 10 μm. […] Scale bar represents 10 μm. […] Scale bar represents 10 μm.

[4] = target: T4, full length HA-hG9a K185R mutant (human, UniProt Q96KQ7 1-1210); experiment: proximity ligation assay (HA and HP1γ antibodies), A549 rtta cells; weaker than wild type
T4 construct: Expressed in Cos-7 cells or from a doxycycline-inducible transgene in A549 rtta cells; also called HA-G9a K185R
T4 sequence (looked up): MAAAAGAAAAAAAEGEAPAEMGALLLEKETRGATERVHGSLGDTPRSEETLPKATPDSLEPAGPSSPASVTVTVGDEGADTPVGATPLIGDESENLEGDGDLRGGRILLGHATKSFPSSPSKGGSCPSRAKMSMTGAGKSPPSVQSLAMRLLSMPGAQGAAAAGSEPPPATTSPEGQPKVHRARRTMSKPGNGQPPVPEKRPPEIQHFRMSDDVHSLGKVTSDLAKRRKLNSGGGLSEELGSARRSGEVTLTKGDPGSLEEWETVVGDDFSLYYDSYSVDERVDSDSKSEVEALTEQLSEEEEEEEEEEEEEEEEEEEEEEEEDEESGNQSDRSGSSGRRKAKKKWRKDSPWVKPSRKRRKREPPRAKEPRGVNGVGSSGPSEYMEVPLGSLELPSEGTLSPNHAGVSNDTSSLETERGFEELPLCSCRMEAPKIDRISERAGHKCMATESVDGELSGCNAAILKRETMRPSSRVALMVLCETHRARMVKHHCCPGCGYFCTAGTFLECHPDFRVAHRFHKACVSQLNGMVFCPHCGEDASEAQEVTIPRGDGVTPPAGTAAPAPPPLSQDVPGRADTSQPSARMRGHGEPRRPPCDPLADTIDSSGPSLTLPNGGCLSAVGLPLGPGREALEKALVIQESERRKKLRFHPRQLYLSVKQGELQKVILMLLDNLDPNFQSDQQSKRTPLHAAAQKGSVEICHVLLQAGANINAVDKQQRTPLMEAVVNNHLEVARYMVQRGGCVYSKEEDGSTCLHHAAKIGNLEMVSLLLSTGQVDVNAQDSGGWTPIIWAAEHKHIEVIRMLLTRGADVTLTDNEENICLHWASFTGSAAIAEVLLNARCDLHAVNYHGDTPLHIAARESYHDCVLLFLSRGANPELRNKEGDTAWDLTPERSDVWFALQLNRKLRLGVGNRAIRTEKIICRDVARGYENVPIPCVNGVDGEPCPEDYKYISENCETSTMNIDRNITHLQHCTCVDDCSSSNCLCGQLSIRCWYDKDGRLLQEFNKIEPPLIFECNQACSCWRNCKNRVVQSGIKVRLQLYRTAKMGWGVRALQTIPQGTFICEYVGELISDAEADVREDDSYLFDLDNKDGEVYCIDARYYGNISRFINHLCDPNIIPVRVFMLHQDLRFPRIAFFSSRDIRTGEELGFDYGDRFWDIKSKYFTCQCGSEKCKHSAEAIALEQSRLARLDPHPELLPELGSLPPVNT

Measured: binding result

B1: heterochromatin protein 1 gamma (HP1γ), endogenous protein of A549 cells (other, human, UniProt Q13185 2-183, looked up)
chain: ASNKTTLQKMGKKQNGKSKKVEEAEPEEFVVEKVLDRRVVNGKVEYFLKWKGFTDADNTWEPEENLDCPELIEAFLNSQKAGKEKDGTKRKSLSDSESDDSKSKKKRDAADKPRGFARGLDPERIIGATDSSGELMFLMKWKDSDEADLVLAKEANMKCPQIVIAFYEERLTWHSCPEDEAQ
notes: Detected in fixed cells by proximity ligation assay; also called CBX3
binds: all assays above
